Assay results published in PubChem BioAssay AID1259415 (National Center for Advancing Translational Sciences (NCATS), 2018).
About 18,000 (4.4%) of roughly 410,000 compounds were called active. The shares of active, inactive and inconclusive entries below differ from those in the screen. Rule as the data show it: active = activity change below about -60%; inconclusive = no clear call, values can overlap the other calls; inactive = above about -39%.

Experiment: qHTS Assay for inhibitors of the human cytomegalovirus (HCMV)
Settings: HFF cells, HCMV-luciferase reporter, 72 h; at 57.5 µM; active compounds read low
In short: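 Human foreskin fibroblasts infected with luciferase-reporter HCMV at MOI 1 PFU/cell, compounds at two doses. Luciferase measured 72 h post infection; normalized to buffer-only basal and Salinomycin (10uM) controls.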
% is scaled to controls: 0 for no effect and ±100 for the full control effect.

Row | Structure (SMILES) | activity change, negative = inhibition
1 | COc1ccc(OC)c(Nc2cc(C)nc3ccc(C)cc23)c1 | inactive: -13.4%
2 | COc1ccc2c(c1)N(C)/C(=C/c1cccc[n+]1C)S2 | active: -99.3%
3 | O=C(O)CCCC(=O)NNC(=O)c1cccc(Br)c1 | inconclusive: -43.3%
4 | COc1ccc(NC(=O)CSc2nnc(-c3ccccn3)n2N)cc1Cl | inconclusive: -44.3%
5 | Oc1ccc(-c2nc3ccc(Cl)cn3c2Nc2ccc3c(c2)OCO3)cc1 | inactive: 12.9%
6 | Cc1nc(Cc2ccccc2)sc1CC#N | inactive: 6.73%
7 | O=C1CCC[C@H]2[C@@H](Cc3ccccc3)[C@@H](NCC3CCCCC3)CC[C@]23CCCN13 | inactive: 12.8%
8 | COc1ccc(/C=C(/NC(=O)c2ccc(C)cc2)C(=O)N2CCCC2)cc1OC | inactive: -11.1%
9 | COc1cccc(CNC(=O)c2nnn(CC(=O)Nc3cc(C)ccc3C)c2N)c1 | inconclusive: -42.3%
10 | COc1ccc(CCNC(=O)Cc2c(C)c3cc4c(C)coc4cc3oc2=O)cc1OC | inactive: -3.46%
11 | CCN(c1ccccc1)S(=O)(=O)c1ccc(Cl)c(NC(=O)CSc2ncn[nH]2)c1 | active: -101%
12 | COc1cc(/C=C(\C#N)C(=O)N2CCOCC2)ccc1OCc1ccccc1 | inactive: -15.9%
13 | Cc1ccc(-c2cc(-c3ccccc3O)nc(N/N=C/c3cccnc3)n2)cc1 | inconclusive: -43.5%
14 | CCCN1CCN(C(=S)Nc2ccc3nc(N4CCN(CC)CC4)cc(C)c3c2)CC1 | inconclusive: -59.6%
15 | CC(=O)OC1C2CCC1C([N+]1(C)CCCCC1)CC2 (stereo unspecified) | inconclusive: -56.4%
16 | COc1cccc(NS(=O)(=O)c2ccc(-n3cccn3)cc2)c1 | inconclusive: -56.2%
17 | OCCn1c(-c2ccc3c(c2)OCO3)csc1=Nc1ccccc1 | inconclusive: -49.7%
18 | O=C(COc1ccc(Oc2ccccc2)cc1)NCc1cn2ccccc2n1 | inconclusive: -54.2%
19 | Cc1ccc(C)c(CN2CCC(CNC(=O)CCc3nnc4ccc(N5CCC(C)CC5)nn34)CC2)c1 | inconclusive: -44.6%
20 | CC(C)NC(=O)Cn1cc(C(=O)C2CC2)c2ccccc21 | active: -61.4%
21 | COc1cc(O)c(C(CC(=O)N2CCN(c3ccccc3)CC2)c2ccc(N(C)C)cc2)c(OC)c1 (stereo unspecified) | inactive: -1.52%
22 | CC(C)(C)c1ccc(CC(=O)N2CCC2(C)C(=O)O)cc1 (stereo unspecified) | inactive: -8%

Row | Structure (SMILES) | activity change, negative = inhibition
23 | O=C1CSC(c2ccc3c(c2)OCO3)N1c1ccc(Oc2ccccc2)cc1 (stereo unspecified) | inconclusive: -57.2%
24 | CC(C)c1c(C(=O)N/N=C/c2ccc(Cl)cc2Cl)nnn1-c1nonc1N | inconclusive: -49.4%
25 | COc1ccc2nc(NC(=O)c3cc(=O)c4cc(C)cc(C)c4o3)sc2c1 | inactive: -15.5%
26 | COc1cc(CN(C)CC(=O)c2[nH]c(C)c(C(C)=O)c2C)ccc1OC(F)F | inactive: 23%
27 | Cc1ccccc1CN1[C@@H](CC2CCCCC2)COCCS1(=O)=O | inconclusive: -52.4%
28 | O=C(Nc1ccc(N2CCOCC2)cc1)Nc1ccc(Cl)c(Cl)c1 | inactive: 14.4%
29 | O=C1CN(C(=O)CNCc2ccc(Cl)cc2)c2ccccc2N1 | inconclusive: -40.5%
30 | O=[N+]([O-])c1cc([N+](=O)[O-])c2cc(-c3cccnc3)[nH]c2c1 | inconclusive: -48.8%
31 | CCCOc1ccc(C2C(=O)N(C3CCCCC3)CC(=O)N2C2CC2)cc1OC (stereo unspecified) | inconclusive: -40.4%
32 | Cc1ccc(S(=O)(=O)N(C)C[C@@H]2OCc3ccccc3-c3c(n(C)c4ccccc34)C(=O)N([C@H](C)CO)C[C@@H]2C)cc1 | active: -60.1%
33 | CCN(Cc1ccncc1)Cc1ccc(OC)c(OC)c1 | inactive: -32.1%
34 | Cc1cc(C)cc(N(C(=O)c2sc(C)nc2C)C(C(=O)NCc2ccco2)c2ccccc2)c1 (stereo unspecified) | inconclusive: -45.9%
35 | Cc1ccc(-n2ncc3c(NC4CCCCC4)ncnc32)cc1Cl | inconclusive: -43.1%
36 | NC(=O)CSc1oc(-c2cccs2)nc1S(=O)(=O)c1ccccc1 | inconclusive: -53.5%
37 | Cc1ccc(N2CCN(C(=O)c3cnn(-c4ccc(C)c(C)c4)c3C3CCNCC3)CC2)c(C)c1 | active: -97%
38 | CCNC(=O)C1(C)CCN(C(=O)c2c(F)cccc2F)C1 (stereo unspecified) | inactive: -5.97%
39 | COc1ccc(/C=C2/NC(=O)CNC2=O)cc1 | inactive: -1.02%
40 | CCOc1ccc(NC(=O)CN(C)C(=O)c2c(-c3ccccc3)noc2C)cc1OCC | inactive: 5.06%
41 | COc1cc(OC)c(C(=O)/C=C/c2ccc(OCc3ccccc3)c(OC)c2)c(OC)c1 | inconclusive: -58.3%
42 | COc1cc(OC)c(OC)cc1/C=C/c1cc(C(F)(F)F)[nH]c(=O)n1 | inconclusive: -40.1%
43 | CC[C@H]1CN2CCc3cc(OC)c(OC)cc3C2C[C@@H]1C[C@H]1NCCc2cc(OC)c(OC)cc21 (stereo partly specified) | active: -97%
44 | Cc1nc2cc(NCc3ccccc3O)ccc2n1Cc1ccccc1 | inactive: -20%

Row | Structure (SMILES) | activity change, negative = inhibition
45 | Cc1cc2oc(=O)cc(CN3CCN(S(=O)(=O)c4ccc5c(c4)OCCO5)CC3)c2cc1C | inconclusive: -49.5%
46 | COc1ccccc1CN(C)CC(=O)Nc1ccc(Cl)cc1C(F)(F)F | inconclusive: -53.9%
47 | COc1ccccc1CCC(=O)Nc1ccc2c(c1)CN(Cc1ccc(CO)o1)CC2 | inactive: 42.5%
48 | CCCCNC(=O)C(NC(=O)Cc1cc(OC)cc(OC)c1)C(=O)c1ccccc1 (stereo unspecified) | inconclusive: -49.9%
49 | CCN(CC)S(=O)(=O)c1cc(C(=O)Nc2ccncc2)ccc1Cl | active: -87%
50 | Cc1nc(N=C(N)N)nc2c(C)cccc12 | inconclusive: -59.4%
51 | CCc1nn2c(=O)c(S(=O)(=O)Nc3ccc(Br)cc3F)c(C)nc2s1 | inactive: 0.119%
52 | Cc1ccc(NC(=O)c2c(NC(=O)c3ccccc3Cl)sc3c2CCC3)cc1 | inactive: -1.09%
53 | CCCCN(CC)S(=O)(=O)c1ccc(C(=O)N(CCCN(C)C)c2nc3cc(C)cc(C)c3s2)cc1 | inconclusive: -53.5%
54 | O=C(CSc1nc(O)cc(=O)n1-c1ccccc1)Nc1ccccn1 | inconclusive: -42.1%
55 | CCOC(=O)C(N=Nc1nn[nH]n1)C(C)=O (stereo unspecified) | inconclusive: -57.9%
56 | COc1ccc(OC)c(NC(=O)C(C)Oc2ccc(Br)cc2)c1 (stereo unspecified) | inconclusive: -52.1%
57 | O=C(OCC(=O)N1CCN(C(=O)c2ccco2)CC1)c1ccccc1C(=O)c1ccc(Cl)cc1 | inactive: 4.07%
58 | Cc1cc(C(=O)COc2ccccc2Cl)c(C)n1C1CC1 | active: -67.2%
59 | Cc1nn(C(=O)c2cccc(F)c2)c(C)c1S(=O)(=O)N1CCOCC1 | active: -81.1%
60 | O=C(C1CCN(c2ncnc3c2nc2n3CCCCC2)CC1)N1CCN(c2ccc(Cl)cc2)CC1 | inconclusive: -59.4%
61 | COc1cccc2sc(N(CCCN(C)C)C(=O)c3sc4ccccc4c3Cl)nc12 | inconclusive: -56.5%
62 | O=C(C1CCN(Cc2ccccc2O)CC1)N1CCN(Cc2ccc3c(c2)OCO3)CC1 | active: -64.6%
63 | COc1ccc(-c2nc3ccccc3c(=O)n2-c2cccnc2)cc1 | active: -77%
64 | CN(C)C=Nc1c(C(=O)c2ccccc2)sc2nccc(N(C)C)c12 | active: -74.8%
65 | CNc1cccccc1=S | inactive: -18.7%
66 | Cc1ccc(Cl)cc1NC(=O)N(Cc1ccc2c(c1)OCO2)C1CCN(Cc2ccccc2)CC1 | inconclusive: -59.7%

Row | Structure (SMILES) | activity change, negative = inhibition
67 | COC(=O)[C@H](CC(C)C)NC(=O)NCCCc1ccccc1 | inconclusive: -54.4%
68 | Cc1nc(C)c(C(=O)NCCC(c2ccccc2)c2ccccc2)o1 | inconclusive: -56.3%
69 | CCN(c1ccccc1)S(=O)(=O)c1cc(NC(=O)Nc2ccccc2C#N)ccc1Cl | active: -68.5%
70 | CC(C)(C)OC(=O)NCCc1nnc(SCc2ccc(Cl)cc2Cl)o1 | inconclusive: -52.8%
71 | Cc1c(Cl)cccc1Nc1nn2c(=O)c3ccc(C(=O)NCCC4=CCCCC4)cc3nc2s1 | inactive: -35.4%
72 | CC(C)CC(c1nnnn1Cc1cccs1)N1CCN(c2nc3ccccc3s2)CC1 (stereo unspecified) | inconclusive: -55.6%
73 | CCOC(=O)C1=NOC(Cn2cc(C(C)=O)c(=O)[nH]c2=O)C1 (stereo unspecified) | inactive: 10%
74 | CN1CCN(CC(=O)Nc2nc(-c3ccccc3)cs2)CC1 | inactive: 180%
75 | COc1cc(C(=O)c2cc3c(cc2C)OCO3)cc(OC)c1OC | active: -67.8%
76 | Nc1nc(F)nc2c1ncn2[C@@H]1O[C@H](CO)[C@@H](O)[C@H]1O | active: -95.8%
77 | Cc1ccc(N(C(=O)c2ccc3c(c2)OCO3)C2C=CS(=O)(=O)C2)cc1C (stereo unspecified) | inconclusive: -45.9%
78 | N#C/C(=C\c1ccc(O)c([N+](=O)[O-])c1)c1nc2ccccc2s1 | inconclusive: -40.3%
79 | COc1ccc(NC(=O)c2cc([N+](=O)[O-])ccc2N2CCCCC2)cc1 | inconclusive: -53.7%
80 | CN(C)c1ccc(Nc2nc3ccccc3n3nnnc23)cc1 | active: -61.8%
81 | COc1ccccc1-c1nn2c(=O)cc(CN3CCN(C(=O)/C=C/c4ccccc4)CC3)nc2s1 | inactive: 17.3%
82 | CCc1ccc(C(O)(CC(C)C)C(CN2CCOCC2)c2ccccc2)cc1 (stereo unspecified) | active: -89.9%
83 | COC(=O)CCC(=O)Nc1cc(S(=O)(=O)Nc2ccc(Cl)cc2)ccc1N1CCOCC1 | inactive: 36.5%
84 | Cc1c(CN2CCC(CO)(CCOc3ccccc3)CC2)[nH]c2ccc(Cl)cc12 | active: -92.5%
85 | COc1cccc(CNC(=O)CN2C(=O)N(c3cccc(Cl)c3)S(=O)(=O)c3ccccc32)c1OC | inconclusive: -56.1%
86 | COc1ccc(-c2c(-c3ccccc3)c(C(=O)C(=O)NCCCN(C)C)n3ccc4cc(OC)c(OC)cc4c23)cc1OC | active: -96.5%

Looked up by structure from above, 2 records:
Row | Structure (SMILES) | activity change, negative = inhibition
82 | CCc1ccc(C(O)(CC(C)C)C(CN2CCOCC2)c2ccccc2)cc1 (stereo unspecified) | active: -89.9%
72 | CC(C)CC(c1nnnn1Cc1cccs1)N1CCN(c2nc3ccccc3s2)CC1 (stereo unspecified) | inconclusive: -55.6%
